Changes are numbered by the printed parent chain. The list shows a part of the results.

Common to all, as to settings: yeast three-hybrid, YBZ-1, SC-Leu-His + 0.5 mM 3-AT, 4 days
Assay [1] has as its target T1, PUM1 PUF domain R5-HRL C1007H + Q1011L (Homo sapiens) (UniProt Q14671).
T1 sequence: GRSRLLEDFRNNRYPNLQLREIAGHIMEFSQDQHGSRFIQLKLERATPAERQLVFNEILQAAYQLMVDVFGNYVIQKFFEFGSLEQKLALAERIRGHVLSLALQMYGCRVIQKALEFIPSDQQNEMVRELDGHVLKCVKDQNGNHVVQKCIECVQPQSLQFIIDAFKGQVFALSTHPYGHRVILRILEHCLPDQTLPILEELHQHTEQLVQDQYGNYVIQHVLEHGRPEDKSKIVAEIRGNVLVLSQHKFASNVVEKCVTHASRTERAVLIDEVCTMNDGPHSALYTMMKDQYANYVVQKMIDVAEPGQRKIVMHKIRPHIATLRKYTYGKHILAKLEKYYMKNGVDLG

In assay [2] the target is T2, PUM1 PUF domain R5-KAS C1007K + R1008A + Q1011S (Homo sapiens) (UniProt Q14671).
T2 sequence: T1 sequence with H180K, R181A, L184S

Assay [3] addresses T3, PUM1 PUF domain R5-KGS C1007K + R1008G + Q1011S (Homo sapiens) (UniProt Q14671).
T3 sequence: T1 sequence with H180K, R181G, L184S

Assay [4] deals with T4, PUM1 PUF domain R5-KNG C1007K + R1008N + Q1011G (Homo sapiens) (UniProt Q14671).
T4 sequence: T1 sequence with H180K, R181N, L184G

The target in assay [5] is T5, PUM1 PUF domain R5-KRP C1007K + Q1011P (Homo sapiens) (UniProt Q14671).
T5 sequence: T1 sequence with H180K, L184P

Assay [6] addresses T6, PUM1 PUF domain R5-KSK C1007K + R1008S + Q1011K (Homo sapiens) (UniProt Q14671).
T6 sequence: T1 sequence with H180K, R181S, L184K

For assay [7], the target named is T7, PUM1 PUF domain R5-QAR C1007Q + R1008A + Q1011R (Homo sapiens) (UniProt Q14671).
T7 sequence: T1 sequence with H180Q, R181A, L184R

For assay [8], the target named is T8, PUM1 PUF domain R5-QMG C1007Q + R1008M + Q1011G (Homo sapiens) (UniProt Q14671).
T8 sequence: T1 sequence with H180Q, R181M, L184G

Assay [9] has as its target T9, PUM1 PUF domain R5-RAV C1007R + R1008A + Q1011V (Homo sapiens) (UniProt Q14671).
T9 sequence: T1 sequence with H180R, R181A, L184V

Assay [10] concerns the target T10, PUM1 PUF domain R5-RCL C1007R + R1008C + Q1011L (Homo sapiens) (UniProt Q14671).
T10 sequence: T1 sequence with H180R, R181C

Assay [11] addresses T11, PUM1 PUF domain R5-RCS C1007R + R1008C + Q1011S (Homo sapiens) (UniProt Q14671).
T11 sequence: T1 sequence with H180R, R181C, L184S

The target of assay [12] is T12, PUM1 PUF domain R5-RGG C1007R + R1008G + Q1011G (Homo sapiens) (UniProt Q14671).
T12 sequence: T1 sequence with H180R, R181G, L184G

Assay [13] addresses T13, PUM1 PUF domain R5-RGM C1007R + R1008G + Q1011M (Homo sapiens) (UniProt Q14671).
T13 sequence: T1 sequence with H180R, R181G, L184M

For assay [14], the target named is T14, PUM1 PUF domain R5-RKP C1007R + R1008K + Q1011P (Homo sapiens) (UniProt Q14671).
T14 sequence: T1 sequence with H180R, R181K, L184P

The target in assay [15] is T15, PUM1 PUF domain R5-RMK C1007R + R1008M + Q1011K (Homo sapiens) (UniProt Q14671).
T15 sequence: T1 sequence with H180R, R181M, L184K

In assay [16] the target is T16, PUM1 PUF domain R5-RMR C1007R + R1008M + Q1011R (Homo sapiens) (UniProt Q14671).
T16 sequence: T1 sequence with H180R, R181M, L184R

The target of assay [17] is T17, PUM1 PUF domain R5-RNG C1007R + R1008N + Q1011G (Homo sapiens) (UniProt Q14671).
T17 sequence: T1 sequence with H180R, R181N, L184G

Assay [18] deals with T18, PUM1 PUF domain R5-RSI C1007R + R1008S + Q1011I (Homo sapiens) (UniProt Q14671).
T18 sequence: T1 sequence with H180R, R181S, L184I

The target of assay [19] is T19, PUM1 PUF domain R5-SKR C1007S + R1008K + Q1011R (Homo sapiens) (UniProt Q14671).
T19 sequence: T1 sequence with H180S, R181K, L184R

Assay [20] deals with T20, PUM1 PUF domain R5-TPR C1007T + R1008P + Q1011R (Homo sapiens) (UniProt Q14671).
T20 sequence: T1 sequence with H180T, R181P, L184R

“GGCUAGAACUAGUGGAUCCCCCGGCGCCCGGCGGCUCGAGCCCGGGUAAGUGUAAAUAGUCUGCAUGCCGCCGGGCGCCAUGCCUGCAGGUCGACUCUAGAAAACAUG”: the binding signal (log2 enrichment (interaction score)) in assay [1] is -0.52; in [2] it was -0.3; in assay [3], -0.5; in assay [4], -0.53; in [5] it was -0.53; in [6] it was -0.46. Moreover, the binding signal (log2 enrichment (interaction score)) in assay [7] is -0.41; in assay [8] it was -0.51; in assay [9], -3.31; in [10], -0.43; in assay [11], -0.51; in [12] it was -0.3. Further, the binding signal (log2 enrichment (interaction score)) in assay [13] was -0.41; in assay [14], -0.52; in [15] it was -0.47; in [16] it was -0.32; in assay [17], -0.41; in [18], -0.51. Besides, the binding signal (log2 enrichment (interaction score)) was -0.41 in assay [19] and -0.91 in assay [20].

Values taken from article PMC8384837.
